Data reported in US20130102595A1 (Curis, Inc., priority 2011, published 2013).
At least one structure is not confirmed: it was looked up by name or label, or the drawing left a doubt.

What was measured:
[1] = tested on: HDACs (HeLa cell nuclear extracts); experiment: HDAC enzymatic activity, Biomol Color de Lys system; assay type: biochemical; details: 1 hour, 25° C.
Protocol: (E) an In Vitro Assay which Determines the Ability of a Test Compound to Inhibit HDAC Enzymatic Activity.
HDAC inhibitory activity was assessed using the Biomol Color de Lys system (AK-500, Biomol, Plymouth Meeting, Pa.). Briefly, HeLa cell nuclear extracts were used as a source of HDACs. Different concentrations of test compounds were serially diluted in dimethylsulphoxide (DMSO) and added to HeLa cell nuclear extracts in the presence of a colorimetric artificial substrate. Final assay condition contained 50 mM Tris/Cl, pH 8.0, 137 mM NaCl, 2.7 mM KCl and 1 mM MgCl2. Reactions were carried in room temperature (25° C.) for 1 hour before addition of developer for termination. Relative enzyme activity was measured in the WALLAC Victor II 1420 microplate reader as fluorescence intensity (excitation: 350-380 nm; emission: 440-460 nm). Data were analyzed using GraphPad Prism (v4.0a) with a sigmoidal dose response curve fitting for IC50 calculation.

PI3K = details: cited from earlier work
[2] = cited from earlier work

For `CS(=O)(=O)N1CCN(Cc2cc3nc(-c4cccc5c4cnn5CCCCC(=O)NO)nc(N4CCOCC4)c3s2)CC1` [Compound 3, N-hydroxy-5-(4-(6-((4-(methylsulfonyl)piperazin-1-yl)methyl)-4-morpholinothieno[3,2-d]pyrimidin-2-yl)-1H-indazol-1-yl)pentanamide], the IC50 [1] was < 100 nM.
`CS(=O)(=O)N1CCN(Cc2cc3nc(-c4cccc5[nH]ncc45)nc(NCCCCC(=O)NO)c3s2)CC1` [Compound 34] gave an IC50 [1] of 100 to 1000 nM.
With `CS(=O)(=O)N1CCN(Cc2cc3nc(-c4cccc5[nH]ncc45)nc(NCCCCCC(=O)NO)c3s2)CC1` [Compound 35] the IC50 [1] was < 100 nM.
In the case of `CS(=O)(=O)N1CCN(Cc2cc3nc(-c4cccc5[nH]ncc45)nc(NCCCCCCC(=O)NO)c3s2)CC1` [Compound 36], the IC50 [1] is reported as < 100 nM.
For `COC[C@H]1OC(=O)c2coc3c2[C@@]1(C)C1=C(C3=O)[C@@H]2CCC(=O)[C@@]2(C)C[C@H]1OC(C)=O` [wortmannin], the “PI3K IC50 value” (PI3K) is given as “low nanomolar” and the “in vivo anti-tumor activity” value [2] is given as “low”.
